In assay [1] the target is T1, asialoglycoprotein receptor 1 (ASGR1), endogenous, human (human (endogenous in HepG2-PCSK9-KO)) (UniProt P07306).
T1 sequence: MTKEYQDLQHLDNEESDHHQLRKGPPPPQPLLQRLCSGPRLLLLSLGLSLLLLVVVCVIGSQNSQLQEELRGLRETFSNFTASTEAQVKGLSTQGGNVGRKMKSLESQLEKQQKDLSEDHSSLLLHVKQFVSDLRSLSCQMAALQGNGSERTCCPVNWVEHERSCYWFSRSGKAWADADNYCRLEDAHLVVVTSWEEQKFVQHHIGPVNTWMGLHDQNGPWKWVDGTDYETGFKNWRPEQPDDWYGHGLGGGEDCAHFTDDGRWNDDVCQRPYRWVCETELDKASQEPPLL
The assay can be described thus: co-IP.

Protein sequences, listed by entry. Tags and fused reporters are not part of them. Lines headed by an entry give the natural chain unless they say otherwise; changes in a name come on top. Residues count along the entry.
UniProt P16671: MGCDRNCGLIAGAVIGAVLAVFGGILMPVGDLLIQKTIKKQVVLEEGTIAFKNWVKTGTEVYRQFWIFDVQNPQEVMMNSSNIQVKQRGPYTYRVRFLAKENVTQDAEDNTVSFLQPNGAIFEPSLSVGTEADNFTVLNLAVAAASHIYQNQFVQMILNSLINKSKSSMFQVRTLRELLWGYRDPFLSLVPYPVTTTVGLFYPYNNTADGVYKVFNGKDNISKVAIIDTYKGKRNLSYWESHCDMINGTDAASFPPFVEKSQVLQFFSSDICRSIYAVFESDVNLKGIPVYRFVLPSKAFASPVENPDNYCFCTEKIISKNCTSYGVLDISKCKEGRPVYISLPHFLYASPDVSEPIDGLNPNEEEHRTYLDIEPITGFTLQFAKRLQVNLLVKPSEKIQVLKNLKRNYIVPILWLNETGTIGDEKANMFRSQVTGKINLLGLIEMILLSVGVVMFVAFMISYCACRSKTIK
UniProt P35951, residues 22-862: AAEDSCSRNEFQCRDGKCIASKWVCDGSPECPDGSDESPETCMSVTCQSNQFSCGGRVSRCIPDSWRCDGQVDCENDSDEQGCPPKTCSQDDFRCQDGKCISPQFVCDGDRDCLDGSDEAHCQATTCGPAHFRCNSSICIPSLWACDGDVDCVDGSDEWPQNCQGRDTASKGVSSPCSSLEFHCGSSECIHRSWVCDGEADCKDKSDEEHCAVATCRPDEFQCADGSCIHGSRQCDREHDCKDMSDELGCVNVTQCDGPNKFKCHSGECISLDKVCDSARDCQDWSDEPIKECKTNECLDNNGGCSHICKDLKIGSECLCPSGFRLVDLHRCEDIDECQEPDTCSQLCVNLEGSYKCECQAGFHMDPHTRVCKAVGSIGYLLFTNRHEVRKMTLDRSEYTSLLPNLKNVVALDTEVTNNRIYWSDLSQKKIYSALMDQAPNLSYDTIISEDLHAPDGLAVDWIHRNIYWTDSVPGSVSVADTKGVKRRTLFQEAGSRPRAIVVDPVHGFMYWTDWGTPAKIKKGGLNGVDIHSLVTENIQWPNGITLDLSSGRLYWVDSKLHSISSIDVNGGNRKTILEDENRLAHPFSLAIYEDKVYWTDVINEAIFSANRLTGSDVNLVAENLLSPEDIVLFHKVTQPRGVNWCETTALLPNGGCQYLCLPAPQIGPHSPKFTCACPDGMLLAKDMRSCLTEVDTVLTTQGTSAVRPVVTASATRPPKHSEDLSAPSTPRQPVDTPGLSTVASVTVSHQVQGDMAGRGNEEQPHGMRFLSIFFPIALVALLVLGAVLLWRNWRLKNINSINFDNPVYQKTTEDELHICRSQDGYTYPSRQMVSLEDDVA
UniProt P06213: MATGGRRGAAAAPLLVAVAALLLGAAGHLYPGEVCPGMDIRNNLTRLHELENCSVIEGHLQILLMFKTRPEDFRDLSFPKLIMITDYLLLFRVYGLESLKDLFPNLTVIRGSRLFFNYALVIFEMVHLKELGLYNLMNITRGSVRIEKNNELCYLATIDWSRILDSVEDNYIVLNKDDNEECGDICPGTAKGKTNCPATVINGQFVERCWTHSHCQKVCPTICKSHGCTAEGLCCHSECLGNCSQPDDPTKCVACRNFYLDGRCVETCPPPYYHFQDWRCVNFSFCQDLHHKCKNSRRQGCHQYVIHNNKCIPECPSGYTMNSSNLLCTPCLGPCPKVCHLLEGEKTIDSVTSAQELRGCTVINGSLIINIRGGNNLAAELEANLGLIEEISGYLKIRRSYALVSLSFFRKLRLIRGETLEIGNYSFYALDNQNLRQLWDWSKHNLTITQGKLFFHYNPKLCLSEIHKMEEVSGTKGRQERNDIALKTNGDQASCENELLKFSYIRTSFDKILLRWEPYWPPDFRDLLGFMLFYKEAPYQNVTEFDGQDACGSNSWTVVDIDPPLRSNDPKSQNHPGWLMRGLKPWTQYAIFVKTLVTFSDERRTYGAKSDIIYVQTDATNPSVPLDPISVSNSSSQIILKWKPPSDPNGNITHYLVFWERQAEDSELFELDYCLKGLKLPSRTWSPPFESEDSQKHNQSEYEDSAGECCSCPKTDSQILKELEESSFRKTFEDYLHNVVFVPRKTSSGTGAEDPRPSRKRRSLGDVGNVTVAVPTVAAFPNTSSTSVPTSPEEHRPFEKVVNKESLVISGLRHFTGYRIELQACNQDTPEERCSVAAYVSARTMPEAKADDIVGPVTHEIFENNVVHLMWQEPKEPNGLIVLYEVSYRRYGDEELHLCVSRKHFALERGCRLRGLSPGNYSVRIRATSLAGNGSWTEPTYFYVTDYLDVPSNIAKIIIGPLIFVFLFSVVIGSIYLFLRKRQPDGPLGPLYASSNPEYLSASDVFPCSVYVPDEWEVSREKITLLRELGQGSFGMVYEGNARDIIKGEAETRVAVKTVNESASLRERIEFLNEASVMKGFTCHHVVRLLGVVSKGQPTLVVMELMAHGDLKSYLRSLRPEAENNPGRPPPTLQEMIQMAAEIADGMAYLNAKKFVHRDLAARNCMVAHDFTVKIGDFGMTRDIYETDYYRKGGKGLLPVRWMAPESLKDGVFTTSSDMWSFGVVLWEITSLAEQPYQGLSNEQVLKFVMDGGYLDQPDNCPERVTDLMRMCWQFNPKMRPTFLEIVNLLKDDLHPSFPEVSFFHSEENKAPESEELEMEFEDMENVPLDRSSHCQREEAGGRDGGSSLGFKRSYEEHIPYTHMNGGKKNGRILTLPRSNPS

Assay [2] concerns the target T2, ASGR1, endogenous, mouse liver (mouse (endogenous in liver)) (UniProt P34927).
T2 sequence: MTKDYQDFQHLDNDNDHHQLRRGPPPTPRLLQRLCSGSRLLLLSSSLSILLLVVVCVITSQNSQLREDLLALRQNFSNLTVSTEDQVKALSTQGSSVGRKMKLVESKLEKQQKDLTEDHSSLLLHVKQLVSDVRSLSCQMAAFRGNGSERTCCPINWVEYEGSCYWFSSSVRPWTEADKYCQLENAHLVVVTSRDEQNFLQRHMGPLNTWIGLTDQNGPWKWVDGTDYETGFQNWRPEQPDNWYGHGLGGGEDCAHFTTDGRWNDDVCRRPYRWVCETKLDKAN
The assay can be described thus: co-IP.

No constants are given. Whether binding was seen depends on the method and setting. In cells and extracts the contact can be indirect. Some binding calls cover weakened binding; strength is not graded here.

For the substance “CD36, endogenous, human (from UniProt P16671 1-472) (receptor)”, the binding entry in assay [1] was “no binding”.
Turning to “LDLR, endogenous, mouse liver (from UniProt P35951 22-862) (receptor)”, the binding entry in assay [2] is on record as “binds”.
Consider “insulin receptor (IR), endogenous, human (from UniProt P06213)”, for which the binding entry in assay [1] is reported as “no binding”.

The values above are taken from paper doi:10.1101/2021.04.11.439364.
